These results are taken from PMC6007307.

The test has as its target T1, FLAG-tagged IFIT5 (human) (UniProt Q13325).
T1 sequence: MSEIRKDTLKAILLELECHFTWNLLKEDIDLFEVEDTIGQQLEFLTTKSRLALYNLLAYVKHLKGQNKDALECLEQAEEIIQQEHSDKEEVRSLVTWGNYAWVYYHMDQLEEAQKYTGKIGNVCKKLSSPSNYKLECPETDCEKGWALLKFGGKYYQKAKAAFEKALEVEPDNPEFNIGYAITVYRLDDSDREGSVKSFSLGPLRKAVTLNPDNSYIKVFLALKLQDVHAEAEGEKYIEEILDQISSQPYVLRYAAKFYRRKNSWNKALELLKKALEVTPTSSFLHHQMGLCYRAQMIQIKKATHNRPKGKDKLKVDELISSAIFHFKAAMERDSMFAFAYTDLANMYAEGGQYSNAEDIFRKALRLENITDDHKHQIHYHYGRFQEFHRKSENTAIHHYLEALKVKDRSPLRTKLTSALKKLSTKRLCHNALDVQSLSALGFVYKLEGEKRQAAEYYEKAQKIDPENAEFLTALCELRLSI
Briefly: affinity purification with mass spectrometry; SILAC; anti-FLAG-M2 affinity gel, 4°C 18 h, on Benzonase nuclease treated lysates of transfected HEK293T cells treated with 1000 U/ml IFN-alpha for 16 h; three biological replicates.

These are yes or no findings as the source states them, for the method shown. Binding seen in cells or lysates may run through a third protein. These calls come from enrichment with a bait or labelling near it, and not all partners need be listed. No binding means not detected with the bait. Where a sequence is shown, tags or fusion partners need not be part of it.

For “IFIT3 (endogenous, IFN-stimulated HEK293T) (from UniProt O14879 1-490)”, the binding entry was “no binding”.
